The list does not hold the whole screen: it covers a few groups of compounds. Other doses and runs of a compound may be missing. T/C is the treated group as % of the vehicle group. Where survival is the endpoint, the PubChem record calls one and a half times the control and up active, and a quarter to a half above the control has no call in these data; cut-offs in other NCI protocols can differ. Schedules are NCI's codes, read here as Q, the interval in days (D) or hours (H), X, the number of doses. Some T/C values are marked as having no survivor count here; that says nothing about deaths at the dose.
Tested on: C57BL/6 mice, intracerebral ependymoblastoma, median survival T/C
Assay: NCI In Vivo Anticancer Drug Screen. Data for tumor model Ependymoblastoma (intracerebral) in C57BL/6 mice
Conditions: T/C endpoint: median survival time; dose: 2.0 mg/kg/injection; schedule: Q01DX005 (ip); vehicle: saline; higher T/C = longer survival
Procedure: The antitumor activity of compounds was measured in mice bearing transplantable tumors. Survival or tumor size were measured and the results are expressed as the measurement made in the treated group (T) divided by the measurement made in the vehicle treated control group (C). The tumor model used in this assay is Ependymoblastoma (intracerebral) in C57BL/6 mice

CC(=O)OCC12CCC(C)=CC1OC1C(O)C(OC(C)=O)C2(C)C12CO2 (stereo unspecified) was tested, and the T/C was 106 % of control [survivor count not shown].
